This passage reports binding signal results from PMC7819943, “Rice protein-binding microarrays: a tool to detect cis-acting elements near promoter regions in rice”.

Some of the results follow.

This test has as its target T1, OsSMF1 (Oryza sativa, UniProt Q6ZLB0 1-436).
T1 sequence: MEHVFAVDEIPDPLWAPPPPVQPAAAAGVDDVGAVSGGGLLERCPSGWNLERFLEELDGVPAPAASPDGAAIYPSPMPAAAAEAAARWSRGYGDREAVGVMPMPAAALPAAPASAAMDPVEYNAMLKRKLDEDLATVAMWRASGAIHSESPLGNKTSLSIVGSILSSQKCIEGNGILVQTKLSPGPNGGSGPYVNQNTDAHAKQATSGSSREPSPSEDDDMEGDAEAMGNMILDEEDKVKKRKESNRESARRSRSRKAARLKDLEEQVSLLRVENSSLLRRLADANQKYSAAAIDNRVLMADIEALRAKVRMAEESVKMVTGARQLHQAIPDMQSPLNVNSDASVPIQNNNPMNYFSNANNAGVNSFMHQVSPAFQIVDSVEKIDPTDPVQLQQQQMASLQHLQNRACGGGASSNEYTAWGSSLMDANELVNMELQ
The experiment in a line: protein-binding microarray (RPBM); PBS, 2% BSA, 51.3 ng/ul salmon testes DNA, 50 uM zinc acetate, 200 nM TF, 25 C, 1 h; high values mean tight binding. The note with it: protein: recombinant; tags: N-terminal polyhistidine and DsRed monomer fusion (pET32a); chain copies: 2; label: CyDye5-dUTP incorporated in the synthesized complementary strand; 3' TTTTT single-stranded linker to array surface; dsDNA, one strand shown. The method in brief: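 Ni–NTA purification followed expression in E. coli BL21-CodonPlus of transcription factors fused N-terminally to a polyhistidine tag and DsRed. At 200 nM in PBS with 2% BSA, salmon testes DNA and 50 µM zinc acetate, the protein was incubated for 1 h at 25 °C with a custom Agilent array that had been primer-extended with Cy5-dUTP and blocked with 2% BSA. After washing, the array was read on an Axon 4000B scanner. The binding signal is per-feature fluorescence intensity in arbitrary units.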
Consider “CTGTACTGGAATGTGAAATACGTCATGACTCATGAAGTTGCGGAGTCACCTAGTGCAG”, for which the binding signal is 8950 fluorescence intensity (a.u.).
The same measure for “TGGTGCAGGGGACAAAGAAGCTGACACACCAGGTTGATAACGGAGTCACCTAGTGCAG”: 5170 fluorescence intensity (a.u.); for “CCTTCTATCTATCGATCCAATCCAACGCTGCAGAGACCCTCGGAGTCACCTAGTGCAG”: 3170 fluorescence intensity (a.u.).
For “CCTCCCTCACGTTGGATCCCGTGGAGTTGAGATGATTCGTCGGAGTCACCTAGTGCAG”, the binding signal was 3390 fluorescence intensity (a.u.).
For “AATGGGATATGGGAGGTGGGATTGGGAAAGGGGAATAGATCGGAGTCACCTAGTGCAG”, the binding signal is 3330 fluorescence intensity (a.u.).
The same measure for “GAGTGGGAATTCTGATCAAAACCTGGTGACACGTTTGGCTCGGAGTCACCTAGTGCAG”: 6280 fluorescence intensity (a.u.).
The value for “TGGTACAAGGATTTGTCCTGTCAACATGGCAATCCTCTGCCGGAGTCACCTAGTGCAG” was 3360 fluorescence intensity (a.u.); that for “ACTTGTGTTTTGTCAGTGACACTGGCTGGCCCAGCATGCACGGAGTCACCTAGTGCAG” was 3640 fluorescence intensity (a.u.).
The value for “GACTCAGCGGATTGGAACAAGTCAAAGTGCAACGTCAGCGCGGAGTCACCTAGTGCAG” was 10000 fluorescence intensity (a.u.); that for “AGTTGATAGGAGTAGCTTGAAGAAGCAGAGACAGCTAGATCGGAGTCACCTAGTGCAG” was 37600 fluorescence intensity (a.u.); that for “GACTTGATTTACAGATTTATTGACAGAGTTTTGCTAAGCTCGGAGTCACCTAGTGCAG” was 4370 fluorescence intensity (a.u.).
In the case of “ATAGGTGATGCAAAATAACCGCTCAACTAGGAGCAAACATCGGAGTCACCTAGTGCAG”, the binding signal was 4400 fluorescence intensity (a.u.).
The same measure for “AATAGTTCGTGTGACGTTAATGGTCCCGTTCTTTGCTTCACGGAGTCACCTAGTGCAG”: 3890 fluorescence intensity (a.u.).
The value for “AACGTAGAATCTTTTGCTTGGGGCCCTAAGAGTGACACTACGGAGTCACCTAGTGCAG” was 12400 fluorescence intensity (a.u.); that for “ATAGACTAAGGTTTCACTGACATGTGCGGCCCACATGGGTCGGAGTCACCTAGTGCAG” was 27100 fluorescence intensity (a.u.).
In the case of “GATTGACTTTATGTGGGTCCCACAAATCAATTTTCACGCTCGGAGTCACCTAGTGCAG”, the binding signal was 3520 fluorescence intensity (a.u.).
Take “CTCCACTCACCGTCACCGACATGTGGACCACCCAACGTTTCGGAGTCACCTAGTGCAG”: the binding signal is 3420 fluorescence intensity (a.u.).
The value for “GTCTTACTGTTTCTGATGAAACCTGTGTTAGTATCCAGCTCGGAGTCACCTAGTGCAG” was 25800 fluorescence intensity (a.u.).
The value for “GGAGAACCCAAAGGATCCTGATGAAGTACGTGGCATATTGCGGAGTCACCTAGTGCAG” was 5760 fluorescence intensity (a.u.); that for “TATGGGGCCGTGATATTCAATGTGATGTGCATACAGCATGCGGAGTCACCTAGTGCAG” was 3720 fluorescence intensity (a.u.).
The same measure for “TGCTCAGGGTTTCGTCAGTGCCGTTCGGGACGTGGAATGGCGGAGTCACCTAGTGCAG”: 4270 fluorescence intensity (a.u.).
For “GACCATTTCGTGCGTCGATTTGACATGCCTTTGTTGCTGTCGGAGTCACCTAGTGCAG”, the binding signal was 3220 fluorescence intensity (a.u.).
The value for “TAGGAAAAGCAAAACATGGAGTGACGTGCTGGATTCTTGTCGGAGTCACCTAGTGCAG” was 5350 fluorescence intensity (a.u.); that for “TTTCTTCCCCGCGCGGCAATTCCTGGCCAACACCACCGCCCGGAGTCACCTAGTGCAG” was 3300 fluorescence intensity (a.u.); that for “ACCTCAAATTGCAGTACGGATTGGGTACTAGTCATCAACACGGAGTCACCTAGTGCAG” was 3180 fluorescence intensity (a.u.).
The same measure for “CCCGCCGCAACAGTAAGCACGTCAGCGTGTCACGCGCCCACGGAGTCACCTAGTGCAG”: 14100 fluorescence intensity (a.u.); for “ACAGTATAAGCTATTGTTAGCTACTTGGCTTTGACAATTGCGGAGTCACCTAGTGCAG”: 3280 fluorescence intensity (a.u.).
As to “CACGCCGTGCCTTCCCGATCTCCTCCACGTTCTCTCCCATCGGAGTCACCTAGTGCAG”, the binding signal is 3860 fluorescence intensity (a.u.).
On to “TCCGTCACCAACGTCAGCTGCGACGTCACGCCGCCGACGTCGGAGTCACCTAGTGCAG”, for which the binding signal is 13500 fluorescence intensity (a.u.).
In the case of “CTGCAAGAGATACACCTATGTTAGCCACGTCTTTTCTGTTCGGAGTCACCTAGTGCAG”, the binding signal was 6880 fluorescence intensity (a.u.).
With “AGAGGACATCCCTTAAAGGATGAATGGATGAATAGAGTTTCGGAGTCACCTAGTGCAG”, the binding signal is 24900 fluorescence intensity (a.u.).
The same measure for “TACCTTCTGACGTTATCTTCTGCTTTGATTTTACGTCACACGGAGTCACCTAGTGCAG”: 4750 fluorescence intensity (a.u.); for “GGTGGGGACCACCAGGACGGACGTGTAGGGCCTCCTGAAGCGGAGTCACCTAGTGCAG”: 4270 fluorescence intensity (a.u.).
With “CTTGAAGGAAAACAAGTATAAGGTTCATCCTCATCATCACCGGAGTCACCTAGTGCAG”, the binding signal is 3270 fluorescence intensity (a.u.).
The value for “GTCATTTCCAGAACTAGTCATGTCCTTCGATCTGCTTGTTCGGAGTCACCTAGTGCAG” was 3560 fluorescence intensity (a.u.).
Consider “CCCACGGTTTCCACGTCGCGTGTGCATCTGCAACTCATCTCGGAGTCACCTAGTGCAG”, for which the binding signal is 7080 fluorescence intensity (a.u.).
The same measure for “TACCCCGCCGCCGCGTCCTAGATTGCCGCCGTTCCCTAAACGGAGTCACCTAGTGCAG”: 3180 fluorescence intensity (a.u.); for “CAACTAAGTAAGATTCTGAGACAATTTTATTGTTTATGCTCGGAGTCACCTAGTGCAG”: 3140 fluorescence intensity (a.u.); for “CGTCCGGGACGATGTCCACGGGTTCATCGATCCATCCGTCCGGAGTCACCTAGTGCAG”: 3300 fluorescence intensity (a.u.).
The same measure for “GGAGGATCGTGTTCTGGAACACGTGCACGTTGATCTCGTTCGGAGTCACCTAGTGCAG”: 3980 fluorescence intensity (a.u.); for “AGAGCAGGTCGCCGGAACCTCTGCCTTCGACGTCCTGCACCGGAGTCACCTAGTGCAG”: 25700 fluorescence intensity (a.u.); for “GCCAGTACGTCATCCGCCAACTCATCCAAATTTGTGTTTACGGAGTCACCTAGTGCAG”: 5180 fluorescence intensity (a.u.).
